Measurements published in PMC6334971.
These are yes or no findings as the source states them, for the method shown. Binding seen in cells or lysates may run through a third protein. A yes stands for co-enrichment or nearness to the bait. Other partners may have been found. Tags and fused reporters may be left off the sequences shown.

T1: HA-tagged Tom36 (Trichomonas vaginalis) (UniProt A2DU34)
T1 sequence: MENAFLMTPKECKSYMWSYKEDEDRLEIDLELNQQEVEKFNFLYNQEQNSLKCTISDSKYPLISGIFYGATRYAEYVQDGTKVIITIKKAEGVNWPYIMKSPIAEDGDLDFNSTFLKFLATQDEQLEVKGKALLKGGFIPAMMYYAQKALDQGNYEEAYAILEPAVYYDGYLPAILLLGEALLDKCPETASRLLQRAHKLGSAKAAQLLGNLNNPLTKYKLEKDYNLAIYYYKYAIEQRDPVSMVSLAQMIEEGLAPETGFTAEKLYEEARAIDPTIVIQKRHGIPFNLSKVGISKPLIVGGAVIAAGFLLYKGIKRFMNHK

T2: HA-tagged TvTom40-2 (T. vaginalis TOM 40-2) (Trichomonas vaginalis) (UniProt A2EH93)
T2 sequence: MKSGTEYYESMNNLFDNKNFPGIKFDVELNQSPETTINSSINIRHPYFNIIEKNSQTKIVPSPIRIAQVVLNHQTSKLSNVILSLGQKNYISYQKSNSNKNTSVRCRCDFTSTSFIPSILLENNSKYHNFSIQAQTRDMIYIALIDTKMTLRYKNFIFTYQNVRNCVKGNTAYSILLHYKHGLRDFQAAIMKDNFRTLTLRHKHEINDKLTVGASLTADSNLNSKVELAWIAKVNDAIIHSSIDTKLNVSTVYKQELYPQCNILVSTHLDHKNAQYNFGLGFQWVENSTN

B1: hydrogenosomal outer membrane protein 19 (Homp19) (protein, UniProt A2DEL5 1-165)
chain: MPDDKYAVSFNAGVDFYKKGQIYQSLQCFADIINEGKTLSQEPTEEFVRYFANTVNYIRIISLSIQSPLEKKISAIEDEFEINTKKIKEFGDQQKNSKTLRELCVETANYISPLIDDLSIDFTDEKETTSTYKIITAVAVSVSICAAAYFLFRKKKLPEIKTAKK
B2: Sam50 (sorting and assembly machinery 50) (protein, UniProt A2DIG2 1-398)
chain: MSSAPEWFPTGSLQEAIDEVKKLTVDDEFKEAAMKSIAEKVLQLGSIKSATIDAKTGEYNVVARDGLMKTYVGGDIGTEKAVRASTGWANFFKRGETISLTGKYTVGGNPSVNVAFTLPDFKSVDFSKNTPFRTYSYAFNIEKNDDGYKSIQSAGFEFNLGGGKDVFSKSISLSAIRQAIDSDVPFPLKYEPNPYFKFQIGAGMPSFLPMQRNQIHAGLICDTKLAVTPFVKATGFNKINLPFGISITANMGLISSLRKRPGAKLSLENMTPVPYPEKFLLGGLPTIYGVDAAKFGYKYGGFPIGSNVYASLTLDESVLIFPEQSLNGHIFLSGSIAKNFSSYFPQSCDPSWTSLAVAGVGLTFIQGQVKVEANLQKPIFQSGAKLNVLTYQLGITPA
B3: Homp38 (protein, UniProt A2EFG6 1-342)
chain: MITPSHQIIYDWEYQDQQEECFVTIHFPPTFNPQVLKYVLSEDKTNLILSMDSPIPIVCGRLWGEVKEIKDVYTSDKYVLSITKQTPEEWPNIIKAVHPEFESLDPKSAYIQFQELVLEAPKDPQFQHYAIERLVASAQTGFLPALRTYGSMMLTVNGQQQNGFTSLKTAADTYGDPASAYQVGLILASTPEGFTNGISYLKFAGSKGFHAAYLTLGQIYSPFTEFEAQKDPALAAQYLQQAIAAGDEMPQAYNELSKLYAAGVGVEKDLKKAQELLAKGEQLEEHQNRRRYSKEHGETAPPPEKHEDRSYAGIGKIIAIGGGIAAFVAGFSYAIYKKFSRK
B4: Tom46 (protein, UniProt A2FNS9 1-412)
chain: MEVDLVIPSNQVRIYMWEFAQDDSNLTITIDLHEEDPQTFTANYSKDDNTLKCTLKGAKYPIVNGILHKATDSMDKTIDGNTVVLKLHKVENGNWSYPIESPVAGESDIDFNSAFLKSIQNPEKPENQEKINNLVKAGFIPAIMYNAKKLIDAEDIDKAADLLDNIVFVEPYLPAVLLLGEAYMTKSPGMAVHCLQTGYRLGSKRAAKLLGDLYSPVSEYKSNKDADMSLTYYRYGIEDKDPQSMVAAAQLIESGLGPKTNILEPDELYEEAKAIDPTIVIPKRHKEEPKPVEQPKPVEQPKPVEQPKPVEQPKPVEQPKPVEQPKPVEQPTPEPAPEPEPKPEPPVAPEPEPVHEEPEPEPPVVKELIRNYPYPDDEYPTINTKAMILTGIAGAAVLVGAIIIIAKKLMKK
B5: Tom36 (protein, UniProt A2DU34 1-322)
chain: T1 sequence

Columns and labels:
[1] = molecular target: T1, HA-tagged Tom36 (Trichomonas vaginalis); test: affinity purification with mass spectrometry; coIP of the HA-tagged bait with α-HA Dynabeads from isolated hydrogenosomes crosslinked with 1 mM DSP (30 min, 25 °C), solubilised in MKG buffer with 1% digitonin; eluted with SDS-PAGE buffer; LFQ-MS against the wild-type strain; four independent coIPs
[2] = molecular target: T2, HA-tagged TvTom40-2 (T. vaginalis TOM 40-2) (Trichomonas vaginalis); test: as above
[3] = molecular target: T1, HA-tagged Tom36 (Trichomonas vaginalis); test: affinity purification with mass spectrometry; coIP of the HA-tagged bait with α-HA Dynabeads from isolated hydrogenosomes under native conditions (no crosslinker), MKG buffer with 1% digitonin; eluted with HA peptide; LFQ-MS against the wild-type strain; four independent coIPs
[4] = molecular target: T2, HA-tagged TvTom40-2 (T. vaginalis TOM 40-2) (Trichomonas vaginalis); test: as above

Molecule | binding [1] | binding [2] | binding [3] | binding [4]
hydrogenosomal membrane protein 35 (Hmp35) | binds | binds | binds | binds
B1 | binds | binds |  | binds
B2 | binds |  | binds | 
B3 | binds |  |  | 
B4 | binds | binds |  | 
B5 |  | binds |  | binds
